The record followed here is article PMC6368539.

By UniProt entry, the sequences of proteins in these tests, tags left out. Where a name states a change or a piece, a line headed by the entry shows the natural chain unless it says otherwise. Residues count along the entry.
UniProt P08034: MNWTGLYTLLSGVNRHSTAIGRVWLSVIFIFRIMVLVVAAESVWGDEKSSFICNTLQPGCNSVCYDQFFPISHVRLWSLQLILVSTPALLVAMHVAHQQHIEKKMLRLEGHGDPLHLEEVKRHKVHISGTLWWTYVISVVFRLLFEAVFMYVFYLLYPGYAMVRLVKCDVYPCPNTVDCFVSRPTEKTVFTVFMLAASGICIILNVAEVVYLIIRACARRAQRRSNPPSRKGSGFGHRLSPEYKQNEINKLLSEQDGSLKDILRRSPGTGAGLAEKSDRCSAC
UniProt Q9UBS4, residues 23-358: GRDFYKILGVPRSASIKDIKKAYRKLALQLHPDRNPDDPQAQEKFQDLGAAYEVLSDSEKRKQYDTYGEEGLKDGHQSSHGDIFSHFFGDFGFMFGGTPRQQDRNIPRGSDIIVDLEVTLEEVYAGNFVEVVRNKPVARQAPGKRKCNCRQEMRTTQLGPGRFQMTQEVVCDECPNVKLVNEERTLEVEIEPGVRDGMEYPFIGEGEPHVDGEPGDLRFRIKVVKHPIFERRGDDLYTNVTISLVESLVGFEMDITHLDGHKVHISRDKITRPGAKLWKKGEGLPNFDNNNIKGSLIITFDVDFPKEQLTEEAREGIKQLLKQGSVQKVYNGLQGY
UniProt P27824, residues 21-592: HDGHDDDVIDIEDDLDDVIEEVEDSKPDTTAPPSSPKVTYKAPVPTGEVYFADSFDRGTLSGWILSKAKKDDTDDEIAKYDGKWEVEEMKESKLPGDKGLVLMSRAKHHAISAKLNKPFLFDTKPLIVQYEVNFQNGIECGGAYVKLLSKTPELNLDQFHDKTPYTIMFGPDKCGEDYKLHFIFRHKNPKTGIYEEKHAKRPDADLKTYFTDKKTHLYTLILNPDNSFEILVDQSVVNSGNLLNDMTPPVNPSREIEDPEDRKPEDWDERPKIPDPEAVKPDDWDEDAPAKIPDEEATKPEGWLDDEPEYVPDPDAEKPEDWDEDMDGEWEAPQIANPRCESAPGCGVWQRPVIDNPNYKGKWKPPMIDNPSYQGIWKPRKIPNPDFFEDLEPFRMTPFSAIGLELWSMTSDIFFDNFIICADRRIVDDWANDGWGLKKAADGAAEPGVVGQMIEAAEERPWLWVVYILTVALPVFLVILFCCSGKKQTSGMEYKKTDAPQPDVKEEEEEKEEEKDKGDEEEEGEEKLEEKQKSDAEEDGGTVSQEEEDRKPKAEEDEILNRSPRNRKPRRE
UniProt Q5UCC4, residues 26-262: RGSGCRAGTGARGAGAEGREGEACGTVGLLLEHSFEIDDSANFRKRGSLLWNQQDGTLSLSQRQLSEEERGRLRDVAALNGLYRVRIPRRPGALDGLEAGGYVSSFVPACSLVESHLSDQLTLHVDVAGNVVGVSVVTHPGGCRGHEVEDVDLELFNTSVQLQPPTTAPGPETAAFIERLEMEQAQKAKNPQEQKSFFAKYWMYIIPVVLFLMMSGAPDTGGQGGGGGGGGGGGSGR

The target in assay [1] is connexin 32 wild type, FLAG-tagged (human) (UniProt P08034). Put plainly: affinity purification with mass spectrometry; FLAG-tagged Cx32 immunoprecipitated from transfected HEK293T cells in 1% digitonin buffer with a rabbit monoclonal anti-FLAG antibody; rabbit IgG isotype control; three replicates; label-free quantification.
Assay [2] concerns the target connexin 32 L90H, FLAG-tagged (human) (UniProt P08034). The assay is described as above.

Results are given in words; binding and its absence hold for the method and conditions named. In cells and extracts the contact can be indirect. These calls come from enrichment with a bait or labelling near it, and not all partners need be listed.

On to “ERdj3 (DNAJB11) (from UniProt Q9UBS4 23-358)”, for which, in assay [1], the binding result is reported as “binds”.
With Calnexin (from UniProt P27824 21-592), the binding entry in assay [2] and in assay [1] was “binds” throughout.
For the substance “ER-membrane protein complex (EMC) subunit 10 (from UniProt Q5UCC4 26-262)”, the binding result in assay [2] and in assay [1] was “binds” each time.
